# Measured values: PubChem BioAssay AID2551 (National Center for Advancing Translational Sciences (NCATS), 2010)
# Amino acid sequences for entries named in this document (tags omitted). A change or cut given only in a name is not applied to a line headed by its entry.
# UniProt P51450: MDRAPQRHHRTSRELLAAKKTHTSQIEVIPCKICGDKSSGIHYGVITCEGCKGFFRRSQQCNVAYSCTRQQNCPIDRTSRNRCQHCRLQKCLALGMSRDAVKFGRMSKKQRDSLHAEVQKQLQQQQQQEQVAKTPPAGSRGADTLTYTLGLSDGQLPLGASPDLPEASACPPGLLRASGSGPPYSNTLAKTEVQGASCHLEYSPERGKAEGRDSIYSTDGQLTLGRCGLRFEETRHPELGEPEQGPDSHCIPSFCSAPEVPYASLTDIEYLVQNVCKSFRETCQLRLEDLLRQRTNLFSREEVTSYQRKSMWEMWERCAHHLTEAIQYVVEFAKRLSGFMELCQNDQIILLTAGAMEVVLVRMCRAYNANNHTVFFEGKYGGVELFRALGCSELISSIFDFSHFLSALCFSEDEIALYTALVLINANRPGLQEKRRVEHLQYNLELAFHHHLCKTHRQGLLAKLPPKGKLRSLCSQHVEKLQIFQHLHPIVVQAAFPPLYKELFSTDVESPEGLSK
# Among all 310,000 compounds or so, about 17,000 (5.5%) were called active. The shares of active, inactive and inconclusive entries below differ from those in the screen. Calls come from the whole dose curve; as a rule, active = well fitted inhibition curve with a large enough effect; inconclusive = small, poorly fitted or top-dose-only effect, or effect the other way; inactive = no such curve, though single readings can be large or run the other way. Where the call is inconclusive, the potency comes from a doubtful curve fit.
# Molecular target: Nuclear receptor ROR-gamma (Mus musculus) (UniProt P51450)
# Experiment: qHTS for inhibitors of ROR gamma transcriptional activity; note: nearly all actives have a fitted effect of over 60% in size
# Conditions: Drosophila S2 Gal4-RORgamma UAS-luciferase reporter, 20 h; activity change, negative = inhibition: at 53.6 µM (top of the series)
# Procedure, shortened: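 Using a luciferase readout, inhibitors were identified by reduced reporter activity in Drosophila cells coexpressing a copper-inducible Gal4–ROR gamma fusion and UAS-driven Photinus luciferase, incubated 20 hr after 700 uM copper sulfate.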
# % is set by controls: 0 for no effect and ±100 for the full control effect; potency is the fitted concentration of half-maximal effect.
Compound,Potency,"activity change, negative = inhibition"
C/C(=N\NC(=O)c1nnn(-c2nonc2N)c1CN1CCc2ccccc21)c1ccccc1O,active: 2.24 µM,–
N#Cc1cnc(Nc2nc3ccccc3o2)nc1-c1ccccc1,active: 2.51 µM,–
Cc1cc(N)n(-c2ccc(S(=O)(=O)c3ccc(C(C)C)cc3)cc2)n1,"inconclusive: 10 µM [activator, single point]",–
CCn1c(CNC(=O)c2cccc(C)c2)nnc1SCC(=O)Nc1nnc(C)s1,"inconclusive: 0.251 µM [inhibitor, full curve, poor fit]",–
Cc1ccc(C)c(NC(=O)CN(C)C(=O)c2cccc(S(=O)(=O)N3CCN(Cc4ccccc4)CC3)c2)c1,"inconclusive: 7.08 µM [activator, partial curve, poor fit]",–
COc1ccc(C(=O)C2CCCN(Cc3sc(N4CCCC4)nc3Cl)C2)c(OC)c1 (configuration not stated),"inconclusive: 31.6 µM [activator, single point]",–
CCN(CCCNC(=O)C1CCC(=O)N1Cc1ccc(C)cc1)c1cccc(C)c1 (configuration not stated),–,inactive: 33.3%
CCOC(=O)CN1N=C(/C=C/c2ccc(OC)cc2)CCC1=O,"inconclusive: 3.16 µM [activator, partial curve]",–
COc1cc(/C=N/Nc2ccc(C(F)(F)F)cn2)cc(OC)c1O,"inconclusive: 22.4 µM [inhibitor, single point]",–
O=C(Nc1ccc2ccccc2c1)c1ccc(Cl)cc1,"inconclusive: 20 µM [inhibitor, single point]",–
Cc1ccc(S(=O)(=O)n2c(=O)oc3ccccc32)cc1,–,inactive: 8.77%
O=C(c1ccccn1)N1N=C2/C(=C/c3ccc(F)cc3)CCCC2C1c1ccc(F)cc1 (configuration not stated),"inconclusive: 15.8 µM [inhibitor, single point]",–
CCc1cc(OCCCSc2nc(C)cc(=O)[nH]2)ccc1Cl,"inconclusive: 8.91 µM [inhibitor, partial curve, poor fit]",–
CCOC(=O)c1cccc(COC(=O)c2cccc(-c3nnc(-c4ccccc4)o3)c2)c1,–,inactive: -4.62%
COc1ccc(Cc2nc(-c3cccs3)no2)cc1OC,"inconclusive: 8.91 µM [activator, partial curve]",–
Cc1nc(NCc2ccc3c(c2)OCO3)c2nnn(Cc3ccccc3)c2n1,"inconclusive: 35.5 µM [inhibitor, single point]",–
COc1cccc(-n2c(=O)[nH]cc(C(=O)Nc3ccc4c(c3)OCCO4)c2=O)c1,"inconclusive: 12.6 µM [activator, single point]",–
O=C(N[C@@H](Cc1ccccc1)C(=O)OCc1ccccc1)c1nc[nH]c1C(=O)N1CCc2ccccc2C1,active: 12.6 µM,–
Cc1cc(F)ccc1NCc1ccc([N+](=O)[O-])cc1,"inconclusive: 17.8 µM [activator, single point]",–
COC(=O)[C@@]1(Cc2ccc(F)cc2)[C@H]2c3cc(C(=O)N4CCCC4)n(Cc4cc(C)n(C)n4)c3C[C@H]2CN1C(=O)c1ccccc1,–,inactive: 11.8%
COc1ccccc1CCc1nnc(CCC(=O)N(C)Cc2cccc3cnccc23)o1,–,inactive: 5.73%
O=C(OCc1cc2ccccc2[nH]c1=O)c1ccccc1,"inconclusive: 3.98 µM [activator, single point]",–
C#CC[N+](C)(C)CCCCCCCCCCCC,"inconclusive: 25.1 µM [inhibitor, single point]",–
CC1Cc2ccccc2N1C(=S)NC(=O)c1cccc(Br)c1 (configuration not stated),active: 1.12 µM,–

Compound,Potency,"activity change, negative = inhibition"
COCCNC(=O)C(c1ccc(C)cc1)N(Cc1ccccc1)C(=O)CCC(=O)Nc1ccccn1 (configuration not stated),–,inactive: 9.93%
C=CCN1C(=O)C(CC(=O)Nc2ccc(OCC)cc2)N(Cc2ccccn2)C1=S (configuration not stated),"inconclusive: 12.6 µM [activator, single point]",–
Cc1nn(Cc2ccccc2)c(Cl)c1/C=N/NC(=O)c1cccnc1,"inconclusive: 17.8 µM [activator, single point]",–
COC(=O)c1ccc(C(NC(=O)OCc2ccccc2)/C(I)=C/[C@@H](C)C(=O)Nc2ccccc2)cc1 (some centres not stated),"inconclusive: 11.2 µM [activator, partial curve]",–
CC(C)OC(=O)c1ccc(N2CCN(c3ccc(F)cc3)CC2)nc1,"inconclusive: 35.5 µM [activator, single point]",–
CCc1ccc(C(=O)COC(=O)c2nn(C)c(=O)c3ccccc23)cc1,"inconclusive: 22.4 µM [activator, single point]",–
CCc1nc2sc3c(c2c(=S)[nH]1)CC(C)(C)OC3,active: 2 µM,–
CN1C(=O)/C(=C/c2cc(C(C)(C)C)c(O)c(C(C)(C)C)c2)NC1=S,active: 7.08 µM,–
Cc1ccc(NC(=O)COC(=O)CCC(=O)c2ccc(Cl)cc2)cc1S(=O)(=O)N(C)C,–,inactive: 8.88%
O=C(O)CCCC(=O)Nc1ccc(OCc2nc3ccccc3s2)cc1,–,inactive: 9.33%
Cc1ccccc1-c1cc2c(nn1)-c1ccccc1C2=O,active: 10 µM,–
CCN(CC(=O)NC(C)C)C(=O)[C@@H](NC(=O)c1ccco1)C(C)C,–,inactive: 18.6%
Cc1ccccc1-n1c(C)cc(/C=N/NC(=O)c2ccc(CN3CCOCC3)cc2)c1C,active: 10 µM,–
CN(c1ccc(C(=O)N2CCN(c3ccc(F)cc3)CC2)cc1)S(C)(=O)=O,–,inactive: -29%
COc1cc(/C=C(\NC(C)=O)C(=O)O)cc(OC)c1OC,–,inactive: 3.43%
CCCOC(=O)c1ccc(NC(=O)c2cccc(S(=O)(=O)N3CCN(C(C)=O)CC3)c2)cc1,"inconclusive: 3.55 µM [activator, full curve]",–
O=C(c1ccc(Cn2c(=O)[nH]c3ccccc3c2=O)cc1)N1CCN(c2ccc(Cl)cc2)CC1,"inconclusive: 10 µM [activator, single point]",–
Cc1ccc(-n2c(SCC(=O)N/N=C/c3ccc(C)s3)nnc2-c2ccccc2)cc1,"inconclusive: 35.5 µM [inhibitor, single point]",–
CC(=O)Nc1ccc(S(=O)(=O)N2CCSC2c2ccc(C)cc2)cc1 (configuration not stated),–,inactive: 20.2%
CCC(c1nnnn1Cc1ccc2c(c1)OCO2)N1CCN(c2ccc(OC)cc2)CC1 (configuration not stated),"inconclusive: 35.5 µM [activator, single point]",–
Cc1ccc(OCCCCN2CCC(C)CC2)cc1,–,inactive: -14.4%
O=C(Nc1nc2c(s1)CCCC2)C1COc2ccccc2O1 (configuration not stated),"inconclusive: 35.5 µM [inhibitor, single point]",–
O=C(Nc1ccc(S(=O)(=O)N2CCCC2)cc1)c1ccc(CN2CCc3ccccc3C2)cc1,active: 5.62 µM,–
O=C(Nc1nc2ccccc2[nH]1)c1cc(F)cc(F)c1,–,inactive: -24.4%

Compound,Potency,"activity change, negative = inhibition"
Cc1ccc(C(=O)N/C(=C\c2ccco2)C(=O)NCCN2CCOCC2)cc1,–,inactive: -0.898%
COc1ccc(Oc2cc(C)nc(Cl)n2)nn1,–,inactive: -21%
Clc1cnc(N/N=C/c2ccncc2)c(Cl)c1,"inconclusive: 11.2 µM [inhibitor, single point]",–
O=C(CCl)NNc1nc(-c2ccccc2)c2cc(Cl)ccc2n1,"inconclusive: 22.4 µM [inhibitor, single point]",–
Cc1ccc(CNC(=O)c2ccccc2NS(=O)(=O)c2ccc(Cl)nc2)cc1,"inconclusive: 15.8 µM [activator, partial curve]",–
Cn1cnc([N+](=O)[O-])c1Oc1cccc2ccccc12,"inconclusive: 22.4 µM [inhibitor, single point]",–
O=C1c2cc([N+](=O)[O-])cc3cc([N+](=O)[O-])cc(c23)C(=O)N1c1ccccn1,"inconclusive: 1.78 µM [inhibitor, single point]",–
CC(=O)NS(=O)(=O)c1ccc(N=c2ssc3c2-c2cc(C)c(C)cc2NC3(C)C)cc1,"inconclusive: 7.94 µM [activator, single point]",–
Cc1ccc(C)c(N2CCN(C(=O)C3CCCN(S(=O)(=O)c4c(C)noc4C)C3)CC2)c1 (configuration not stated),"inconclusive: 14.1 µM [activator, single point]",–
CC(C)(C)NC(=S)NCc1cccnc1,–,inactive: -34.8%
O=C(CO)N/N=C/c1c2ccccc2cc2ccccc12,–,inactive: -14.7%
O=C(Nc1cccc(-c2nc3ncccc3o2)c1)c1sc2cc(Cl)ccc2c1Cl,–,inactive: 36%
CS(=O)(=O)N(CC(=O)NCc1ccco1)c1ccc(Cl)cc1Cl,"inconclusive: 35.5 µM [activator, single point]",–
CC1(C)[C@H]2CC=C(CN3CCC(N4CCC(C(=O)N5CCCC5)CC4)CC3)[C@@H]1C2,–,inactive: 18.6%
CC(Sc1ccc(Cl)cc1)C(=O)Nc1ccc2c(c1)OCO2 (configuration not stated),"inconclusive: 22.4 µM [activator, single point]",–
CCn1cc(CNC(=O)c2ccc(C)s2)cn1,–,inactive: 15.1%
Cc1cc(C(=O)N(C)CC(=O)Nc2ccccc2C(F)(F)F)c(C)o1,"inconclusive: 22.4 µM [inhibitor, single point]",–
C[Si](C)(C)C#Cc1ccccc1NC(=S)Nc1ccccc1,active: 14.1 µM,–
CN(CC1CCCO1)S(=O)(=O)c1ccc(C(=O)Nc2nc(-c3ccccn3)cs2)cc1 (configuration not stated),active: 7.94 µM,–
Cc1ccc(S(=O)(=O)NCC(=O)NCC(=O)OCC(=O)N2CC(=O)Nc3ccccc32)cc1C,–,inactive: -2.07%
COc1cccc(NC(=O)CN2CCC(C)CC2)c1,"inconclusive: 12.6 µM [activator, single point]",–
O=S(Cc1ccc(Br)cc1)Cc1nnc(SCc2c(Cl)cccc2Cl)n1-c1ccccc1 (configuration not stated),"inconclusive: 6.31 µM [activator, single point]",–
Cc1ccc(S(=O)(=O)N(CC(=O)N/N=C/c2ccco2)c2cc(Cl)cc(Cl)c2)cc1,"inconclusive: 35.5 µM [inhibitor, single point]",–
CN=c1scc(-c2ccco2)n1/N=C/c1ccc(O)c(O)c1,active: 0.0891 µM,–

# A draw from above in order of number of heavy atoms, smallest number first:
Compound,Potency,"activity change, negative = inhibition"
CC(C)(C)NC(=S)NCc1cccnc1,–,inactive: -34.8%
Cc1cc(C(=O)N(C)CC(=O)Nc2ccccc2C(F)(F)F)c(C)o1,"inconclusive: 22.4 µM [inhibitor, single point]",–
CN(CC1CCCO1)S(=O)(=O)c1ccc(C(=O)Nc2nc(-c3ccccn3)cs2)cc1 (configuration not stated),active: 7.94 µM,–
Cc1ccc(C)c(N2CCN(C(=O)C3CCCN(S(=O)(=O)c4c(C)noc4C)C3)CC2)c1 (configuration not stated),"inconclusive: 14.1 µM [activator, single point]",–
